Laboratory results published in patent EP4831172A1, “A CLASS OF POLYCYCLIC COMPOUNDS AND USES THEREOF” (dated 2026).
Structures were worked out from names or drawings and are uncertain.

Amino acid sequences for entries named in this document (tags omitted). Residues count along the entry.
UniProt P43220, 24-463 limits assumed: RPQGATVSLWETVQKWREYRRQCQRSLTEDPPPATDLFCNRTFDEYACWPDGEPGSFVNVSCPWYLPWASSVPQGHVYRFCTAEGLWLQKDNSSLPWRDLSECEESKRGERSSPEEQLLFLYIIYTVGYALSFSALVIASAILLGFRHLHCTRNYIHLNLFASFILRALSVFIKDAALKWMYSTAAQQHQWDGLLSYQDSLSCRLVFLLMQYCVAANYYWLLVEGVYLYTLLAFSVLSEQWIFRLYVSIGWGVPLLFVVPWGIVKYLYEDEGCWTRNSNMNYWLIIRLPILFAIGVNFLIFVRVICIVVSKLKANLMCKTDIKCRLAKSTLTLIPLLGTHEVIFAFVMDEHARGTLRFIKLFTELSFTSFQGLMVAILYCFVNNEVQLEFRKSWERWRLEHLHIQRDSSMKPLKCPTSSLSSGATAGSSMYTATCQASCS

Legend:
[1] = target: GLP-1R (Homo sapiens, UniProt P43220); experiment: GLP1R-cAmp-Luc cell luciferase reporter assay of agonistic activity (titled in vitro enzymatic assay); details: read-out: Agonistic activity (EC50: nM); GLP1R-cAmp-Luc cells, 4 h incubation
[2] = In vivo pharmacokinetic study in mice; details: ICR mice, detection results at 24 h

| EC50 [1] [nM] | AUCinf ([2]; iv (2 mg/kg)) [ng·h/mL] | AUCinf ([2]; po (10 mg/kg)) [ng·h/mL] | Cmax ([2]; po (10 mg/kg)) [ng/mL] | Tmax ([2]; po (10 mg/kg)) [h] | SMILES |
| --- | --- | --- | --- | --- | --- |
| < 10 | 7077 | 42906 | 5103 | 1.00 | C[C@H]1c2c(nn(-c3ccc(F)c(C4CC4)c3)c2-n2ccn(-c3ccc4c(cnn4C)c3F)c2=O)CCN1C(=O)c1cc2cc([C@H]3CCOC(C)(C)C3)ccc2n1[C@@]1(c2noc(=O)[nH]2)C[C@@H]1C |
| < 10 |  |  |  |  | Cc1cc(-n2nc3c(c2-n2cnn(-c4ccc5c(cnn5C)c4F)c2=O)[C@H](C)N(C(=O)c2cc4cc([C@H]5CCOC(C)(C)C5)ccc4n2[C@@]2(c4noc(=O)[nH]4)C[C@@H]2C)CC3)cc(C)c1F |
|  | 7207 | 43702 | 4557 | 1.67 | Cc1cc(-n2nc3c(c2-n2ccn(-c4cc5c6c(cnn6CCO5)c4F)c2=O)[C@H](C)N(C(=O)c2cc4cc([C@H]5CCOC(C)(C)C5)ccc4n2[C@@]2(c4noc(=O)[nH]4)C[C@@H]2C)CC3)cc(C)c1F |
